In the supplement of paper PMC12819154, “High-throughput peptide-centric local stability assay extends protein–ligand identification to membrane proteins, tissues and bacteria” (Nature Structural & Molecular Biology, 2025):
Some of the results follow. Most entries show no effect beyond the scatter of the controls.

These targets were tested with CN[C@@H]1C[C@H]2O[C@@](C)([C@@H]1OC)n1c3ccccc3c3c4c(c5c6ccccc6n2c5c31)C(=O)NC4 [staurosporine] (assay: log2 fold change of tryptic peptide abundance, ligand vs vehicle (limited proteolysis) (log2 ratio); higher = more trypsin-susceptible (destabilized)). Conditions: ligand concentration: 20 uM; sample: mouse liver crude lysate; replicate design: treated separately.

Target | log2 fold change
UniProt P05201 (peptide sequence: VNLGVGAYR, peptide start residue: 34) | 0.671
UniProt P0C6B7 (peptide sequence: RIFQEIAQELYHKR, peptide start residue: 198) | -0.293
UniProt P10078 (peptide sequence: THTGEKPYECK, peptide start residue: 379) | -0.294
UniProt P10711 (peptide sequence: APSTSDSVR, peptide start residue: 133) | -0.436
UniProt P06745 (peptide sequence: LRELFEADPER, peptide start residue: 26) | -0.27
UniProt P10833 (peptide sequence: LVVVGGGGVGK, peptide start residue: 17) | -0.112
UniProt P09411 (peptide sequence: SVVLMSHLGRPDGVPMPDK, peptide start residue: 57) | 0.431
UniProt P10107 (peptide sequence: KGTDVNVFTTILTSR, peptide start residue: 214) | -0.19
UniProt P14869 (peptide sequence: GHLENNPALEKLLPHIR, peptide start residue: 67) | 0.28
UniProt P09036 (peptide sequence: VTGKEASCHDAVAGCPR, peptide start residue: 26) | -0.54
UniProt P0C0A3 (peptide sequence: MHQVMSIEEVER, peptide start residue: 114) | -0.109
UniProt P01899 (peptide sequence: YFETAVSRPGLEEPR, peptide start residue: 31) | -0.226
UniProt P08556 (peptide sequence: VKDSDDVPMVLVGNK, peptide start residue: 103) | 0.146
UniProt P06537 (peptide sequence: SQELFDEIR, peptide start residue: 697) | -0.152
UniProt P06797 (peptide sequence: DRDNHCGLATAASYPVVN, peptide start residue: 317) | -0.16
UniProt P06837 (peptide sequence: AGSAETESAAK, peptide start residue: 126) | -0.653
UniProt P08003 (peptide sequence: FIDEHATK, peptide start residue: 623) | -0.295
UniProt P12265 (peptide sequence: LQGFEQQWYRQPLR, peptide start residue: 56) | 0.304
UniProt P08103 (peptide sequence: IIEDNEYTAR, peptide start residue: 403) | -0.22
UniProt P0C605 (peptide sequence: CQSVLPVPSTHIGPR, peptide start residue: 43) | -0.459
UniProt P09602 (peptide sequence: GKADAGKDANNPAENGDAK, peptide start residue: 58) | -0.221
UniProt P01027 (peptide sequence: TVAIHTLDPEK, peptide start residue: 941) | 0.177
UniProt P00015 (peptide sequence: MIFAGIKK, peptide start residue: 81) | 0.000113
UniProt P01895 (peptide sequence: WASVVVPLGK, peptide start residue: 268) | 0.0988
UniProt P07901 (peptide sequence: KTKFENLCK, peptide start residue: 566) | -0.727
UniProt P03953 (peptide sequence: TYHDGVVTINMMCAESNRR, peptide start residue: 184) | 0.131
UniProt P04186 (peptide sequence: RDLEIEEVLFHPK, peptide start residue: 543) | -0.292
UniProt P04230 (peptide sequence: TGIVSTGLVR, peptide start residue: 135) | -0.479
UniProt P01887 (peptide sequence: TVYWDRDM, peptide start residue: 112) | -0.202
UniProt P05202 (peptide sequence: VGAFTVVCKDAEEAK, peptide start residue: 288) | -0.27

2 entries drawn at random from those above, as already listed:
Target | log2 fold change
UniProt P12265 (peptide sequence: LQGFEQQWYRQPLR, peptide start residue: 56) | 0.304
UniProt P05201 (peptide sequence: VNLGVGAYR, peptide start residue: 34) | 0.671
